The assay concerns the target Spätzle processing protease (SPE), yeast hybrid fusion (Drosophila melanogaster) (UniProt Q9VCJ8). Description: two-hybrid; Gal4 yeast two-hybrid in strain Y2H Gold; bait in pGBKT7, prey in pGADT7, genes without signal peptide; growth on SD‐Leu‐Trp‐Ala‐His plus X‐gal; library screen with Spz as bait, pairwise verification and reciprocal assays with switched bait and prey.

Amino acid sequences for entries named in this document (tags omitted).
UniProt Q9VCJ8: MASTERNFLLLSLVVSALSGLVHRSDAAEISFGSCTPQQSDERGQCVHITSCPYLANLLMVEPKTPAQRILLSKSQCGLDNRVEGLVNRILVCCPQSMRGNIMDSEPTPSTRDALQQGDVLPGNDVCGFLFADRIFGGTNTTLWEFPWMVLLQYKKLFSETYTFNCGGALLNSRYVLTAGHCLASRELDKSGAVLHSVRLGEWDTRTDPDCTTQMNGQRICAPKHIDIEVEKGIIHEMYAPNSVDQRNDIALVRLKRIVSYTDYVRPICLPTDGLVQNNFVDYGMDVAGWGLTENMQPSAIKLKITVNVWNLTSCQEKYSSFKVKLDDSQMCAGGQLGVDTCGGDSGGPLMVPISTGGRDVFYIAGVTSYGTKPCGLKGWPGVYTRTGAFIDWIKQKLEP

No constants are given. Whether binding was seen depends on the method and setting.

On to “Spätzle processing protease (SPE), yeast hybrid fusion (from UniProt Q9VCJ8 1-400) (enzyme)”, for which the binding entry is “no binding”.

For the origin of these results see article PMC12767022.
